# In the supplement of paper PMC4858399:
# Tests used:
# [1] = test system: Caenorhabditis elegans N2; test: lowest effective concentration for larval growth inhibition (size below effect threshold); higher = less potent; details: exposure time 48 h
# In short: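 Each well of a 96-well plate received 50 C. elegans N2 L1 larvae, which grew for 48 h at 20°C in K-medium containing killed bacteria, 1% DMSO and the chemical at 0.5, 1, 5, 10, 50, 100 or 200 µM. A Biosort recorded the extinction of every worm as its size, and these readings were log-transformed and averaged per well. The lowest effective concentration is defined as the first dose at which the plate-adjusted mean size falls below the threshold and stays below it at all higher doses; that threshold is 5.665.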
# [2] = test system: Caenorhabditis elegans N2; test: mean nematode size ln(EXT) after 48 h, plate-adjusted (DMSO control set to 6) (ln(EXT), control-adjusted); higher = larger nematodes / less growth inhibition; details: exposure time 48 h
# In short: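 Synchronised C. elegans N2 L1 larvae were grown for 48 h at 20°C in K-medium containing killed OP50, 1% DMSO and 0.5–200 µM chemical, at 50 per well and 4–6 wells per treatment. The Biosort recorded extinction for each worm, and a growth model removed debris. Worm size was obtained by natural-logging these values and averaging them per well. For plate adjustment, the vehicle control mean was subtracted and 6 was added.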
structure (smiles),measurement,setting,value
CCCCCCCCc1ccc(O)cc1 [4-Octylphenol],lowest effective concentration,[1],50 µM
same,mean nematode size ln(EXT) (ln),[2]; 0.5 µM,5.89
same,mean nematode size ln(EXT) (ln),[2]; 1 µM,5.9
same,mean nematode size ln(EXT) (ln),[2]; 5 µM,5.76
same,mean nematode size ln(EXT) (ln),[2]; 10 µM,5.7
same,mean nematode size ln(EXT) (ln),[2]; 50 µM,3.75
same,mean nematode size ln(EXT) (ln),[2]; 100 µM,3.92
same,mean nematode size ln(EXT) (ln),[2]; 200 µM,3.84
